Source: ChEMBL document CHEMBL3988442, “University of Dundee, Small-Polar-MMV Screening Library” (2021).

Results are given as percent effect.
The controls that fix the scale are not given in the record; negative values are as filed.
This is an unselected part of the compounds tested.
Two or more numbers in one place are separate tests of the same structure; such repeats can differ widely.

A: 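Phenotypic screen: M. tuberculosis growth, glucose 7H9 medium, 3 days; the read-out is not stated. Compounds at 50 µM. The record gives no direction; compounds that gave an IC50 in retests scored well above the rest, so higher reads as more growth inhibition. Size under these conditions: about 69,000 compounds, about 760 of them at 50% or above in at least one test.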
B: 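Growth of Mycobacterium tuberculosis over 4 days (cholesterol / DPPC medium with tyloxapol); the read-out is not stated. Compounds at 50 µM. The record gives no direction; compounds that gave an IC50 in retests scored well above the rest, so higher reads as more growth inhibition. About 69,000 compounds were tested under these conditions; 0.54% (about 370) showed 50% or more at least once.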

| # | Compound | A | B |
|---|---|---|---|
| 1 | `Cc1cc(-c2cnn(CCNC(=O)C3CCCO3)c2C2CC2)on1` (stereo not given) | 0.9105% | 0.3274% |
| 2 | `Cc1occc1-c1nnc2n1NC(N)=C(C#N)S2` | -15.52% | -18.07% |
| 3 | `Cc1cnn(CC2CCCN2CC(=O)N(C)Cc2ccc(C)o2)c1` (stereo not given) | 14.43% | 12.75% |
| 4 | `CC(=O)N1CCC2(CCN(C(=O)c3cccc(C(F)(F)F)c3)CC2)C1` | -52.18% | -31.99% |
| 5 | `O=C(CCSc1ccccc1F)NCc1cccnc1` | -8.053% | -5.685% |
| 6 | `CCOCc1nc(CSc2ccncc2)n(C)n1` | -7.905% | -24.97% |
| 7 | `O=c1c2ccccc2cnn1Cc1cncn1C1CC1` | -5.649% & -7.001% | -14.06% |
| 8 | `O=C(CN1C(=O)c2ccccc2CS1(=O)=O)c1ccc(Cl)cc1` | 3.162% & -30.87% | -11.78% |
| 9 | `CC(C)C(C)NC(=O)Nc1ccc(CS(C)(=O)=O)cc1` (stereo not given) | -0.76% & 6.569% | 6.24% |
| 10 | `CC(Cn1cccn1)NCc1csc(COc2ccccc2)n1` (stereo not given) | 15.81% | -6.223% |
| 11 | `CSC(CNS(N)(=O)=O)c1cccc(Cl)c1` (stereo not given) | -26.81% | -26.4% |
| 12 | `[H][C@@]12CCN(S(=O)(=O)CC)[C@]1([H])CC[C@@H](c1nc(C)no1)O2` | -6.528% | -19.23% |
| 13 | `O=C(O)C(F)(F)F.c1nc2c(c(NC3CCC3)n1)CCNCC2` | -2.456% & 0.8488% | 26.59% |
| 14 | `CCc1nc(NS(=O)(=O)c2cccc(F)c2C)no1` | -0.4265% & 21.07% | 19.2% |
| 15 | `Cc1cccc(NC(=O)CN(C)C(=O)c2ccc(OC(C)C)nc2)n1` | 21.1% | -0.7777% |
| 16 | `c1ccc(-c2nc(CCNCc3ccccn3)co2)cc1` | 6.402% | 13.31% & -0.4944% |
| 17 | `COC(=O)C1=C(C)N=C2SCC(=O)N2C1c1cn(C)nc1C` (stereo not given) | 19.49% | 3.973% |
| 18 | `Cc1ccc(N2CCCC(Nc3nn4cc(C)nc4s3)C2)nn1` (stereo not given) | -21.69% | -4.543% |
| 19 | `O=C(O)C(F)(F)F.O=C(O)C(F)(F)F.[H][C@@]12OCCN(Cc3c(C)noc3C)[C@@]1([H])CC[C@H]2Oc1ccccn1` | 1.744% & -13.51% | -15.35% |
| 20 | `CC(C)C1C(=O)NCCN1C(=O)CCCc1nc(C(C)(C)C)no1` (stereo not given) | 9.259% & 2.659% | 3.923% |
| 21 | `COc1cc(N2CCC3(C2)CN(c2cccnc2)C(=O)CN3C)ncn1` (stereo not given) | 0.7902% | -21.03% |
| 22 | `CC(=O)c1cccc(C(=O)N2C[C@@H](CN3CCCCCC3)[C@@H](CO)C2)c1` | -23.68% | 4.285% & -17.04% |
| 23 | `CCC(C)(C)n1nnnc1C(c1cccs1)N1CCCCC1` (stereo not given) | -7.309% | -5.94% & 13.99% |
| 24 | `Clc1cccc(-n2cnnn2)c1N1CCCCC1` | 33.86% | 4.404% |
| 25 | `Cc1nc(CCN)cc(N2CCC(O)(c3ccc(Cl)cc3)CC2)n1` | 56.5% | 20.91% |
| 26 | `CN1CCN(c2ccccc2NC(=O)NCCc2ccc(O)cc2)CC1` | 17.59% | -6.474% |
| 27 | `COc1c(CNCc2cccc(Cn3cccn3)c2)c(C)nn1C` | 11.82% & -0.8051% | 20.49% |
| 28 | `Cc1cc(NC(=O)c2ccc(CN3CC[C@H](O)C3)cc2)ccc1F` | -5.366% & 9.981% | 7.067% |
| 29 | `CN(C)C(=O)c1coc(COc2ccccc2)n1` | 7.158% | 5.191% |
| 30 | `COC(=O)C1CCN(C(=O)CN2CCN(c3cccc(C)c3)CC2)CC1` | -17.14% | -24.44% |
| 31 | `CCc1nc(CCNC(=O)NC2CCSCC2)cs1` | -28.57% | -10.65% & -18.57% |
| 32 | `O=C(O)C(F)(F)F.O=C(O)C(F)(F)F.[H][C@]12CCN(c3ncc(F)cn3)[C@@]1([H])C[C@@H](C(=O)NCc1cccnc1)O2` | -11.2% | -21.85% & 2.277% |
| 33 | `CC(C)(N)C(=O)N1CCCC(c2cncc(Oc3cccnc3)n2)C1` (stereo not given) | -10.53% | 6.666% |
| 34 | `O=C(NCCC(O)c1ccco1)c1ccccc1Br` (stereo not given) | -16.89% & -10.52% | 0.883% |
| 35 | `Cc1ccccc1C(=O)N1CC[C@H](O)[C@@H](N2CCOCC2)CC1` | -7.973% | -3.435% & -4.053% |
| 36 | `OCCC1CN(C2CCC2)CCN1C1CCCC1` (stereo not given) | -4.355% & 9.274% | 4.748% |
| 37 | `O=C(NCCc1c[nH]cn1)c1ccc2c(c1)C(=O)N(C1CCCC1)C2=O` | -9.213% | -10.29% |
| 38 | `CN(C)C(=O)c1nc(-c2ccc(S(C)(=O)=O)cc2)c2ccccn12` | 6.015% | -13.14% |
| 39 | `OCc1ccc(N2CCN(c3ncccn3)CC2)c(F)c1` | 2.744% | -6.595% |
| 40 | `Cc1cc(C)c(C(=O)N(CCO)Cc2ccccc2F)c(=O)[nH]1` | 0.7238% | 0.04368% |
| 41 | `O=C(CCc1ccccc1)N1CCCCC1C1OCCO1` (stereo not given) | -0.6349% | -0.5768% |
| 42 | `[H][C@]12CC[C@]([H])(CN(C(=O)c3ccc(=O)[nH]c3)C1)N(Cc1ccccc1)C2` | -27.21% | -13.49% |
| 43 | `O=C(O)c1ccccc1-c1c(-c2ccccc2)ncn1CC1CCCO1` (stereo not given) | 4.904% | -24.56% |
| 44 | `O=c1[nH]c(CN2CCOC(Cn3cccn3)C2)nc2ccccc12` (stereo not given) | -10.28% | -6.913% |
| 45 | `COc1cc2ccn(CCS(C)(=O)=O)c(=O)c2cc1F` | 6.207% | 8.462% |
| 46 | `O=C(C1CCC2(CCN(c3nncs3)CC2)CO1)N1CCCC1.O=C(O)C(F)(F)F` (stereo not given) | 9.836% | -12.88% |
| 47 | `Cc1nc(C)n(C2CCCN(C(=O)c3ccccc3C)C2)n1` (stereo not given) | -19.72% | -17.39% |
| 48 | `COCCN1C(=O)CC(N2CCN(c3ccccc3)CC2)C1=O` (stereo not given) | 4.379% | 5.981% |
| 49 | `COCC1CC2(CCN(C(=O)c3occc3C)CC2)CN1C(C)C.O=C(O)C(F)(F)F` (stereo not given) | -16.11% | -42.31% |
| 50 | `[H][C@@]12COC[C@]1(COc1ccc(C#N)cn1)CN(Cc1cnn(C)c1)C2` | -17.3% | -19.66% |
| 51 | `N#CC1(C(=O)Nc2ccc(OC(F)F)cc2)CCCC1` | 10.15% & 32.09% | 3.039% |
| 52 | `COCCN1CC[C@H](OC)[C@@H]1Cc1ccccc1.O=C(O)C(F)(F)F` | 4.721% | -6.536% |
| 53 | `Cc1csc(NC(=O)C2CSCCC(=O)N2)n1` (stereo not given) | 2.507% & 18.82% | 7.11% |
| 54 | `Cl.O=C(C1CC=CC1)N1CCC2(CC1)CNCCO2` | -11.37% & -3.072% | -4.337% |
| 55 | `[H][C@@]12CN(C(=O)c3cnccn3)C[C@]1([H])OCC(=O)N2CC1CCCCC1` | 3.009% & -6.272% | 4.972% |
| 56 | `COc1cc(CN(C)C(=O)Nc2cc(C)on2)ccc1SC` | -14.33% | 4.481% & 2.531% |

Repeated from the top, 5 entries:

- Cc1cc(-c2cnn(CCNC(=O)C3CCCO3)c2C2CC2)on1 (stereo not given) | A: 0.9105%; B: 0.3274%
- Cc1occc1-c1nnc2n1NC(N)=C(C#N)S2 | A: -15.52%; B: -18.07%
- Cc1cnn(CC2CCCN2CC(=O)N(C)Cc2ccc(C)o2)c1 (stereo not given) | A: 14.43%; B: 12.75%
- CC(=O)N1CCC2(CCN(C(=O)c3cccc(C(F)(F)F)c3)CC2)C1 | A: -52.18%; B: -31.99%
- O=C(CCSc1ccccc1F)NCc1cccnc1 | A: -8.053%; B: -5.685%